The exact form of at least one protein or probe is not confirmed. A weaker result is weaker than the reference pair of the same experiment. At least one verdict rests on a figure or table, not on a statement of the authors.

The series deals with DDX39B (UAP56) (Homo sapiens) (UniProt Q13838). Put plainly: EMSA. Conditions: 20 mM HEPES pH 7.0, 100 mM NaCl, 1 mM MgCl2, 6% glycerol, 1 mM ATPgS or AMPPNP, 0.5 mM TCEP, 30 ug/ml BSA, 0.5 U/ul SUPERase-In, room temperature, recombinant protein, residues 1-428, label: 5' Alexa Fluor 488.

Turning to UUUUUUUUUU [poly(U) 10-mer RNA], the binding result runs as follows: (1 mM AMPPNP, 1 mM Mg2+, 0.6 uM DDX39B, 40 nM RNA) “binds”; (1 mM ATPgS (printed ATP-S), 1 mM Mg2+, 0.6 uM DDX39B, 40 nM RNA) “binds”; (ATPgS or AMPPNP as indicated, + 0.6 uM TREX-2.1 (LENG8 549-800/PCID2/DSS1), which releases DDX39B from RNA) “binds more weakly”.

The record behind these values is article PMC12216326.
